PubChem BioAssay AID743255 (National Center for Advancing Translational Sciences (NCATS), 2014)
The whole screen tested about 390,000 compounds, of which about 910 (0.23%) were called active. The inconclusive results got no clear call from the source; some entries with a clear call stand among them for comparison. The call rests on the fitted dose curve; in most records, active means well fitted inhibition curve with a large enough effect; inconclusive means small, poorly fitted or top-dose-only effect; inactive means no such curve, though single readings can be large or run the other way. Potencies of inconclusive entries are doubtful fits and often do not repeat.

Protein sequences, listed by entry. Tags and fused reporters are not part of them. Lines headed by an entry give the natural chain unless they say otherwise; changes in a name come on top.
UniProt O94782: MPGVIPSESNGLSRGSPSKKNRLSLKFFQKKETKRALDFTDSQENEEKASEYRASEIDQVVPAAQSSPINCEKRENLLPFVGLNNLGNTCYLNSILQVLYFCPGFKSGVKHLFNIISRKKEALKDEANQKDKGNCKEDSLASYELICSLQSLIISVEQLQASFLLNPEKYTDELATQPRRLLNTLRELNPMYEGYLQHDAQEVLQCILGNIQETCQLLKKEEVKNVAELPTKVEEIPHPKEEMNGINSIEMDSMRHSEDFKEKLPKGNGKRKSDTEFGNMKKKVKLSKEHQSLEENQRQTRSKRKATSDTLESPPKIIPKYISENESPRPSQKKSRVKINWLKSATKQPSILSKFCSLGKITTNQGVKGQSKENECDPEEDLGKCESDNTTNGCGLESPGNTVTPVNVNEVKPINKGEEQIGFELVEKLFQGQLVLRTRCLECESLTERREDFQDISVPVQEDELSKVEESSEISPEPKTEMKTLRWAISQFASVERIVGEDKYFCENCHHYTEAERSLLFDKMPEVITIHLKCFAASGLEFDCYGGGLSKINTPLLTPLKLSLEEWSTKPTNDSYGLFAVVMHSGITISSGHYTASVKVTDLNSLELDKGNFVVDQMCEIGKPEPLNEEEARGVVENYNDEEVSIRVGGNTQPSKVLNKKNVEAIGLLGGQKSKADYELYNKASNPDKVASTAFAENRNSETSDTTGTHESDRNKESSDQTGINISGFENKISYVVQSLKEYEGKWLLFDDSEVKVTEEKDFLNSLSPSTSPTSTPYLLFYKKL

What follows are molecules tested against Ubiquitin carboxyl-terminal hydrolase 1 (Homo sapiens) (UniProt O94782) (assay: Inhibitors of USP1/UAF1: Primary Screen). Settings: recombinant USP1/UAF1, Ub-Rhodamine cleavage fluorescence; activity change, negative = inhibition: at 57.1 µM (top of the series).
How it was run: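 Step one: compound is pinned into 1nM USP1/UAF1 in HEPES pH 7.8 buffer with TCEP. Step two: 15 min room-temperature incubation. Step three: Ub-Rho (150nM final) starts cleavage, tracked by fluorescence over six one-minute reads.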
Further: nearly all actives have a fitted effect of over 60% in size.
On the % scale 0 is the no-effect control and ±100 the full control effect; potency means the concentration at half of the fitted maximal effect.

| Compound | Potency | activity change, negative = inhibition |
| --- | --- | --- |
| COc1cccc(CNC(=O)C(C)n2ccc3cc(S(=O)(=O)N4CCCCCC4)ccc32)c1 (centres undefined) | inconclusive: 100 µM [inhibitor, partial curve, poor fit] | – |
| COC(C[C@H]1O[C@H]1[C@H](O)[C@@H](C)OCc1ccccc1)OC | inconclusive: 0.251 µM [inhibitor, full curve, poor fit] | – |
| CC1CC(C)(C)NC(=S)N1CC(=O)N(C)Cc1ccccc1 (centres undefined) | – | inconclusive: -6.01% [inhibitor] |
| Cc1n[nH]c(=O)nc1NCC1CCCO1 (centres undefined) | – | inactive: 4.76% |
| CCCCN(NC(C)=O)c1nc(Cl)nc(NC(C)C)n1 | inconclusive: 28.2 µM [inhibitor, single point] | – |
| COc1ccc(CNC[C@@H](CCCCN(C)Cc2ccc(OC)cc2)N2C[C@H](c3ccccc3)N(CCc3ccc(Cl)c(Cl)c3)C(=O)C2=O)cc1 | inconclusive: 50.1 µM [inhibitor, partial curve, poor fit] | – |
| CCOc1ccc(Nc2ccc(N)c(S(=O)(=O)O)c2)cc1 | inconclusive: 2 µM [inhibitor, full curve, poor fit] | – |
| COc1ccc(CNC(=O)C2CCN(c3nc4ccc(C)cc4[nH]3)CC2)cc1 | inconclusive: 44.7 µM [inhibitor, partial curve, poor fit] | – |
| CCn1c2c(c(=O)n3ncc(C(=O)Nc4cccc(Cl)c4C)c13)CN(Cc1ccc(OC)cc1)CC2 | inconclusive: 15.8 µM [inhibitor, partial curve, poor fit] | – |
| Cc1ccccc1OCC(O)Cn1c(NCc2ccco2)nc2c1c(=O)n(C)c(=O)n2C (centres undefined) | inconclusive: 0.562 µM [inhibitor, full curve, poor fit] | – |
| Cc1cccc(-[n+]2c(-c3cccc(Br)c3)[nH]c3nc4ccccc4nc32)c1 | inconclusive: 35.5 µM [inhibitor, partial curve] | – |
| CCc1ccccc1NC(=O)Cn1c(=O)nc(-c2ccccc2)c2ccccc21 | inconclusive: 28.2 µM [inhibitor, single point] | – |
| O=C(CCNS(=O)(=O)c1ccc2c(c1)CCN2C(=O)C1CC1)N1CCN(c2ccc(F)cc2)CC1 | inconclusive: 8.91 µM [inhibitor, single point] | – |
| CCN1C(C(=O)c2ccccc2)=C(OC(=O)C(C)C)c2ccccc2S1(=O)=O | inconclusive: 10 µM [inhibitor, full curve, poor fit] | – |
| COc1ccc(S(=O)(=O)c2cn(Cc3ccccc3)c3cc(N4CCCC4)c(F)cc3c2=O)cc1 | inconclusive: 3.16 µM [inhibitor, partial curve] | – |
| CCCOc1cccc(C(=O)Nc2ccc(-c3nc4ccccc4s3)c(Cl)c2)c1 | inconclusive: 0.562 µM [inhibitor, full curve, poor fit] | – |
| COc1ccc(S(=O)(=O)NCc2ccc3c(c2)OCO3)cc1C | inconclusive: 31.6 µM [inhibitor, single point] | – |
| Cc1ccc(S(=O)(=O)C(CNC(=O)C(=O)NCCc2ccccc2)c2ccco2)cc1 (centres undefined) | inconclusive: 44.7 µM [inhibitor, partial curve] | – |
| CC1(NC(=O)CC(c2ccccc2)(c2ccccc2)c2ccccc2)CCN(CCCc2ccccc2)C1=O (centres undefined) | inconclusive: 7.08 µM [inhibitor, partial curve] | – |
| CC1(C)OC(C)(C)/C(=C/Nc2ccc(O)cc2)C1=O | inconclusive: 39.8 µM [inhibitor, partial curve] | – |

| Compound | Potency | activity change, negative = inhibition |
| --- | --- | --- |
| COc1cccc(NC(=O)C(=O)NCCC2CCCCN2S(=O)(=O)c2cccs2)c1 (centres undefined) | – | inactive: -10.9% |
| Cc1ccc(S(=O)(=O)N2CCCCC2)cc1NC(=O)Cn1c(=O)cnc2ccccc21 | inconclusive: 56.2 µM [inhibitor, partial curve, poor fit] | – |
| CN(C)CC(O)COC(c1ccc(Cl)cc1)c1ccc(Cl)cc1 (centres undefined) | – | inactive: -27.5% |
| COc1ccc(CNC(=O)c2nnn(CC(=O)Nc3cc(C)cc(C)c3)c2N)cc1 | inconclusive: 10 µM [inhibitor, full curve, poor fit] | – |
| O=C(Nc1ccc(N2CCN(CCOc3ccc(Cl)cc3)CC2)c(C(=O)O)c1)c1ccc(F)cc1 | – | inactive: -3.53% |
| CCCn1c(SCC(O)c2cccc(OC)c2)nc2ccccc21 (centres undefined) | – | inactive: -27.1% |
| CS(=O)(=O)NNC(=O)CN1C(=O)C2C3C=CC(C3)C2C1=O (centres undefined) | inconclusive: 11.2 µM [inhibitor, single point] | – |
| CCCCCCn1c(CNC(=O)c2ccccc2)nc2ccccc21 | inconclusive: 31.6 µM [inhibitor, partial curve] | – |
| CCOC(=O)C1=C(CN2CCN(CC)CC2)NC(=O)NC1c1ccc(Cl)cc1 (centres undefined) | inconclusive: 0.708 µM [inhibitor, full curve] | – |
| Cc1nn(Cc2ccc(Cl)cc2)c(C)c1NC(=O)c1noc2c1CCc1ccccc1-2 | inconclusive: 31.6 µM [inhibitor, partial curve] | – |
| CC(C)Oc1ccc(CNC(=O)Cn2c(=O)oc3ccccc32)cc1 | inconclusive: 6.31 µM [inhibitor, full curve] | – |
| CCCCC[n+]1ccn(C2=C([O-])c3ccccc3C(=O)/C2=N\S(=O)(=O)c2ccc(Br)cc2)c1 | inconclusive: 35.5 µM [inhibitor, partial curve] | – |
| CCc1cccc(C)c1NC(=O)CSc1nc2ccccc2n1CC(=O)N(C)C | – | inactive: -4.64% |
| CC(C)c1ccc(NC(=O)C(c2ccccc2)N2CC(=O)Nc3ccccc32)cc1 (centres undefined) | inconclusive: 1.26 µM [inhibitor, full curve, poor fit] | – |
| Cc1cccc(C)c1-c1ccc(CN2C(CC(C)C)C(=O)N(Cc3cn(CCO)nn3)CCS2(=O)=O)cc1 (centres undefined) | – | inactive: -30% |
| COc1ccc(C2c3[nH]c4ccccc4c3CCN2Cc2cccn2-c2ncccn2)cc1C (centres undefined) | inconclusive: 39.8 µM [inhibitor, partial curve, poor fit] | – |
| NC(=O)C1CCN(C(=O)CC2(CC(=O)O)CCCCC2)CC1 | inconclusive: 3.55 µM [inhibitor, partial curve] | – |
| COC(=O)c1nnn(-c2nonc2N)c1CSc1nc2ccccc2s1 | – | inactive: -11.2% |
| COc1ccc2c(c1)CCc1c(C(=O)Nc3ccccc3C(F)(F)F)noc1-2 | inconclusive: 0.447 µM [inhibitor, full curve, poor fit] | – |

Quoted from the listing:
Under Potency, `CC(C)c1ccc(NC(=O)C(c2ccccc2)N2CC(=O)Nc3ccccc32)cc1` (centres undefined) is listed with inconclusive: 1.26 µM [inhibitor, full curve, poor fit]
Under Potency, `CCCCCCn1c(CNC(=O)c2ccccc2)nc2ccccc21` is listed with inconclusive: 31.6 µM [inhibitor, partial curve]
Under Potency, `CCOC(=O)C1=C(CN2CCN(CC)CC2)NC(=O)NC1c1ccc(Cl)cc1` (centres undefined) is listed with inconclusive: 0.708 µM [inhibitor, full curve]
